Measured values published in patent publication US20040191842A1, “Chemopreventive and therapeutic aspects of polyphenolic compositions and assays” (Medical College of Georgia Research Institute, Inc., priority 2002, published 2004).
Some of these results come from one statement about several compounds together. At least one structure is not confirmed: it was looked up by name or label, or the drawing left a doubt.

System: aged normal human primary epidermal keratinocytes
Assay: BrdU incorporation assay, aged keratinocytes
Type: cell-based
Conditions: keratinocytes 25 days in culture, 24 h treatment
Description: Culturing normal human epithelial cells. The pooled normal human primary epidermal keratinocytes were purchased from Cambrex (Baltimore, Md.) and sub-cultured in the specific growth media provided by the manufacturer (KGM-2). […] Exponentially growing keratinocytes were treated and harvested in their early passages (2-3 passages). […] Analysis of DNA synthesis using the BrdU incorporation method. The BrdU cell proliferation kit was purchased from Oncogene Research Products (Boston, Mass.). […] Experiments were repeated three times in triplicate for each experiment.

SMILES: O=C(O[C@@H]1Cc2c(O)cc(O)cc2O[C@@H]1c1cc(O)c(O)c(O)c1)c1cc(O)c(O)c(O)c1 [EGCG, (−)-epigallocatechin-3-gallate]
- stimulation of new DNA synthesis, BrdU incorporation: ≤ 3 fold
